42 sequences from publication PMC7819943, “Rice protein-binding microarrays: a tool to detect cis-acting elements near promoter regions in rice” can be followed below.

This is one part of the list.

For this assay, the target named is T1, OsSMF1 (Oryza sativa, UniProt Q6ZLB0 1-436).
T1 sequence: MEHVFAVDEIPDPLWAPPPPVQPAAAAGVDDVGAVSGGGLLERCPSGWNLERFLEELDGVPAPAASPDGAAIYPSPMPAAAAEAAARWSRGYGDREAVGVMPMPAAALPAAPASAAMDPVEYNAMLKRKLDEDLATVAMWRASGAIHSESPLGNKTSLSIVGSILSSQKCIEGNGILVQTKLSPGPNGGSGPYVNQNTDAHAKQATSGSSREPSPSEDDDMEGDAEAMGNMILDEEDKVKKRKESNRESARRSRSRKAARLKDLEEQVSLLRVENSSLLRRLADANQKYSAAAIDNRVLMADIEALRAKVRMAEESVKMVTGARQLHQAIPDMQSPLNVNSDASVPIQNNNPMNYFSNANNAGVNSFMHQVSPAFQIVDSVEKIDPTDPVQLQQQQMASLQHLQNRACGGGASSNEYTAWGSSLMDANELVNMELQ
The assay can be described thus: protein-binding microarray (RPBM); PBS, 2% BSA, 51.3 ng/ul salmon testes DNA, 50 uM zinc acetate, 200 nM TF, 25 C, 1 h; high values mean tight binding. Particulars: protein: recombinant; tags: N-terminal polyhistidine and DsRed monomer fusion (pET32a); chain copies: 2; label: CyDye5-dUTP incorporated in the synthesized complementary strand; 3' TTTTT single-stranded linker to array surface; dsDNA, one strand shown. The method, boiled down: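 Binding signal here means per-feature fluorescence intensity in arbitrary units. The values were read on an Axon 4000B scanner after a custom Agilent array, double-stranded by primer extension with Cy5-dUTP, was incubated with 200 nM protein at 25 °C for 1 h in PBS with 2% BSA, salmon testes DNA and 50 µM zinc acetate, then washed. The proteins were transcription factors with an N-terminal polyhistidine tag and DsRed, expressed in E. coli BL21-CodonPlus and purified on Ni–NTA.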
In the case of “AGAGAAGGAATATTATAGTGCTGACACACTATCTCAATGTCGGAGTCACCTAGTGCAG”, the binding signal is 7100 fluorescence intensity (a.u.).

As for “CGGTCACACGGAAGACGTGGCCGGTGATTCGTACTCTCCACGGAGTCACCTAGTGCAG”, the binding signal is 5350 fluorescence intensity (a.u.).

Take “CGATCTCCGTCCATCGATATGTCACGTACTCCTCACCAACCGGAGTCACCTAGTGCAG”: the binding signal is 4380 fluorescence intensity (a.u.).

In the case of “AAATATTTTCTAATATTATGAATCTGAATAGGTAGCTTGTCGGAGTCACCTAGTGCAG”, the binding signal was 28300 fluorescence intensity (a.u.).

Turning to “CTTTAGTGCACCTGCAGTAGGTGTCACTGATATGTGGGTCCGGAGTCACCTAGTGCAG”, the binding signal is 3150 fluorescence intensity (a.u.).

With “CTCCCTTGCCGTCCCAGTTTCCCTGTATTCTGCATGCCGTCGGAGTCACCTAGTGCAG”, the binding signal was 3570 fluorescence intensity (a.u.).

As to “ACCGACGTGCGCGTTGCGTCGCGTCGCGTGCGTCTCCCCTCGGAGTCACCTAGTGCAG”, the binding signal is 3370 fluorescence intensity (a.u.).

Regarding “TACTATAATTTGACCTCACGCCCTTGAGTTCATTGAGGATCGGAGTCACCTAGTGCAG”, the binding signal is 14600 fluorescence intensity (a.u.).

As to “GGCGGCCGTTTGAAGTCAACAATGTAACACGTGGCCGAATCGGAGTCACCTAGTGCAG”, the binding signal was 8470 fluorescence intensity (a.u.).

For the sequence “TCTCCCACGTCCGCGCGCCGCCGCCTCCCTCCTCGCCACCCGGAGTCACCTAGTGCAG”, the binding signal is 3230 fluorescence intensity (a.u.).

As to “CTGCAGTATCCTCCACTCCACTTTGGCACCATTGTCCCACCGGAGTCACCTAGTGCAG”, the binding signal was 3900 fluorescence intensity (a.u.).

For the sequence “TGTTGTTTTCCAGAGCATGTACACACCATGACCACGATGCCGGAGTCACCTAGTGCAG”, the binding signal was 3670 fluorescence intensity (a.u.).

For the sequence “TCCGCCGCCTCGGTCGGCTCACGCGTCCATGTCCATCCCGCGGAGTCACCTAGTGCAG”, the binding signal is 3600 fluorescence intensity (a.u.).

As to “CCAGCGCCGCCAAACCCAACAAGCCATCCGCCGCTGCCAACGGAGTCACCTAGTGCAG”, the binding signal was 13300 fluorescence intensity (a.u.).

As to “ATAAAGAATATGTAGAATTGGAACTATGCTAAGAGAAGAGCGGAGTCACCTAGTGCAG”, the binding signal is 3280 fluorescence intensity (a.u.).

In the case of “CGCAACAACGGCGACACCGCCGCCAAGGCCCACGCGAGCACGGAGTCACCTAGTGCAG”, the binding signal was 3230 fluorescence intensity (a.u.).

For the sequence “GCGCTAGTGCCTTGCAAAATCGACACGTGGCCCTTCCCCTCGGAGTCACCTAGTGCAG”, the binding signal was 15800 fluorescence intensity (a.u.).

With “CGTCCTTCTCAGTCAGCGCCCATGACCTGACCTGACCCGACGGAGTCACCTAGTGCAG”, the binding signal was 3940 fluorescence intensity (a.u.).

Regarding “GGGTGGAGGAGGGGACTTCGGGAGGGCGGTGGCGAGGGCGCGGAGTCACCTAGTGCAG”, the binding signal is 5360 fluorescence intensity (a.u.).

Turning to “CATATATGTGTGTCTAGATTCATTAACATCTATATGATTGCGGAGTCACCTAGTGCAG”, the binding signal was 4680 fluorescence intensity (a.u.).

With “GCTTTTAAATCGTTAAGAACACGTATATAAAAGTTTTATTCGGAGTCACCTAGTGCAG”, the binding signal was 3700 fluorescence intensity (a.u.).

Take “TCAGGCCTTAAGTGCCTTTGTAATAATGTAAATATTATCGCGGAGTCACCTAGTGCAG”: the binding signal was 3320 fluorescence intensity (a.u.).

Take “GTGGTGGACTGGTGGTGGCGGACTTGACGGCTCCCCACTGCGGAGTCACCTAGTGCAG”: the binding signal is 3690 fluorescence intensity (a.u.).

As to “CTAGCCACTGAAGCATGGGTCATGATACAGCAGTTAATATCGGAGTCACCTAGTGCAG”, the binding signal is 3440 fluorescence intensity (a.u.).

In the case of “CGGTAAATAGTTAAAAGCTCTGACGCGGAAAATTTATCTACGGAGTCACCTAGTGCAG”, the binding signal is 3480 fluorescence intensity (a.u.).

As for “TTTAAGCCTAATTGCGTCATGATTTGACAATGTGATACTACGGAGTCACCTAGTGCAG”, the binding signal was 5800 fluorescence intensity (a.u.).

Turning to “CCGTCGACTCTGTGCCACGTCCTGTTGCTCGTCGGATTCCCGGAGTCACCTAGTGCAG”, the binding signal was 14000 fluorescence intensity (a.u.).

“CGAGGGGCTGATCAGCTTCTGCCGGCAGCCGACGTTCGTGCGGAGTCACCTAGTGCAG”: the binding signal is 3150 fluorescence intensity (a.u.).

In the case of “GGTGCGACGGCTTGGTTGATTGGGTGACGGGTGGGATTTGCGGAGTCACCTAGTGCAG”, the binding signal is 3540 fluorescence intensity (a.u.).

Turning to “TCGGAGGTAGGCCACATCACGGTTTCAACTGTGTATAAGCCGGAGTCACCTAGTGCAG”, the binding signal was 7760 fluorescence intensity (a.u.).

For the sequence “GCGCCCCGCTGCCGAGAGCCGCGCGCGCCGCCGTCGTCATCGGAGTCACCTAGTGCAG”, the binding signal was 4120 fluorescence intensity (a.u.).

Turning to “GACTCCAGCTGGCCTCCATTATTGGCTCTTAGTTAGCCAACGGAGTCACCTAGTGCAG”, the binding signal was 3450 fluorescence intensity (a.u.).

For the sequence “CCGCCGCGCGTGGCTCCCCGGCCACGTCGTCGTCGTCGTCCGGAGTCACCTAGTGCAG”, the binding signal is 10900 fluorescence intensity (a.u.).

Regarding “ATCCCAGTTTGATACTGGAGTATGCTGATGCTAATGTAAACGGAGTCACCTAGTGCAG”, the binding signal is 27700 fluorescence intensity (a.u.).

As for “ATCGTGGAGGTTTTATATCAGCTAGTCACTTGGTTTACCGCGGAGTCACCTAGTGCAG”, the binding signal is 3200 fluorescence intensity (a.u.).

On to “TCCACCACCGCCTGCCTCCATCCACCTCCACTGCAACCTCCGGAGTCACCTAGTGCAG”, for which the binding signal was 3670 fluorescence intensity (a.u.).

With “TGTGGCTGGCGTGTTTCCTGGTTTACGGACCGGTCATAATCGGAGTCACCTAGTGCAG”, the binding signal is 11900 fluorescence intensity (a.u.).

On to “CTGCTCCACGCATTCACCAACGCTCCCTGCGATGTTTTAGCGGAGTCACCTAGTGCAG”, for which the binding signal is 4260 fluorescence intensity (a.u.).

With “TGTACCACGTCAATGATAAGAACAGCACACTGTAGAAAGTCGGAGTCACCTAGTGCAG”, the binding signal is 4670 fluorescence intensity (a.u.).

In the case of “CGACAGAGGCAGGCAGGCAGGCCAGTGGCTATAAAGACTCCGGAGTCACCTAGTGCAG”, the binding signal is 38400 fluorescence intensity (a.u.).

Regarding “GGTTGAGTGACGCGCTATTTCTGGTATTGCGTATGAAGGGCGGAGTCACCTAGTGCAG”, the binding signal was 3520 fluorescence intensity (a.u.).

Take “CAGTATTGCGGGCGAGCGCGCAGCTGAAATACTGAATCCTCGGAGTCACCTAGTGCAG”: the binding signal was 32600 fluorescence intensity (a.u.).
